Test results as given in publication PMC8574036.
No constants are given. Whether binding was seen depends on the method and setting. In cells and extracts the contact can be indirect. Some binding calls cover weakened binding; strength is not graded here.

Sequences of proteins named here, by UniProt entry; tags and fusion partners are left off.
UniProt P51668: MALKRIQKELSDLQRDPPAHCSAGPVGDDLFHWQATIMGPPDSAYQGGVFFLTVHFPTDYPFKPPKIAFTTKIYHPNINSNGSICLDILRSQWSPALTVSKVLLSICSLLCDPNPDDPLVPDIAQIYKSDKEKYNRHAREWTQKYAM
UniProt Q13485: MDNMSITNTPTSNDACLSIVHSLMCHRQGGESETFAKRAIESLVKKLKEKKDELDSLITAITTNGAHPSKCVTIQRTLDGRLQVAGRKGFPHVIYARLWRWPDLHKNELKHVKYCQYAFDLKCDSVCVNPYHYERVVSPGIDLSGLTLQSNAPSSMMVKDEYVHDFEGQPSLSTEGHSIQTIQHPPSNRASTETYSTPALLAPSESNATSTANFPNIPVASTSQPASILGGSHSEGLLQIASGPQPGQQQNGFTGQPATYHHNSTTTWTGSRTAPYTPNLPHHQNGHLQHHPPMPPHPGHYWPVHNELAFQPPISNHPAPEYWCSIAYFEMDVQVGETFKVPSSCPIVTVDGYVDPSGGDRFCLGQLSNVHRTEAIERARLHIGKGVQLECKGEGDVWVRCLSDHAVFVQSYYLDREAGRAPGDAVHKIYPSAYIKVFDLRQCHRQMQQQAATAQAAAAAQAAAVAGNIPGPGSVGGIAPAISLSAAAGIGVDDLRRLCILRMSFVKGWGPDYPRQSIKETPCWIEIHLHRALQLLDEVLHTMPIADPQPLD

Target: ubiquitin-conjugating enzyme E2 D1 (UBE2D1) (human (in lysates of human cell lines; which line is not stated)) (UniProt P51668)
Assay: co-IP; whole cellular lysates (RIPA lysis buffer) incubated with anti-UBE2D1 or anti-SMAD4 at 4 °C overnight, then protein A/G PLUS-Agarose beads at 4 °C for 2 h; eluted proteins detected by western blot with antibodies against SMAD4 or UBE2D1

mothers against decapentaplegic homolog 4 (SMAD4) (from UniProt Q13485 1-552)
binding: binds
